Reference: PubChem BioAssay AID588463 (National Center for Advancing Translational Sciences (NCATS), 2011)
Out of some 1,200 compounds screened, about 15 (1%) were called active. Roughly 7% stayed inconclusive and do not appear here. The call rests on the fitted dose curve; in most records, active means well fitted activation curve with a large enough effect; inconclusive means small, poorly fitted or top-dose-only effect; inactive means flat fitted curve, though single readings scatter. The list shows a part of the results.

target: Beta-2 adrenergic receptor (Homo sapiens) (UniProt P07550); test: qHTS assay of beta-arrestin-biased ligands of beta2-adrenergic receptor: Hit Validation; details: cell-based beta-arrestin recruitment to beta2AR; Potency: activation; series mostly up to 46.1 µM; activation: at the top concentration;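 on activation: plate controls were DMSO for no effect and maximal isoproterenol or metaproterenol response for full effect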
Method in brief: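 Luminescent tTA-driven luciferase reporter in Tango cells, read after 18 h at 37 °C with compound and 15 min with substrate mix (0.15 mM ATP, 0.44 mM D-luciferin, final). Concentration-response fits categorized by curve class.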
Potency means the concentration at half of the fitted maximal effect.

Compound	activation	Potency
Cc1ccccc1NC(=O)c1c([N+](=O)[O-])c(C(C)(C)C)nn1C	inactive: -1.26%	
CCN=c1scc(-c2ccc(F)cc2)n1/N=C/c1ccccn1	inactive: -3.79%	
Cc1ccc2cccc(SCC(=O)Nc3ccc(F)cc3)c2n1	inactive: -2.73%	
Cc1ccc(N=C2NC(=O)/C(=C/C=C/c3ccco3)S2)cc1	inactive: -2.91%	
CCN(CC)c1ccc(/C=N/Nc2nc(C)cc(C)n2)cc1	inactive: -3.89%	
CC(C)CCN1NC2(CCC(C)CC2)NC1=S (stereo unspecified)	inactive: -1.24%	
COc1cccc(/C=N/NC(=S)Nc2cccc(S(=O)(=O)N(C)C)c2)c1	inactive: -1.93%	
CCCn1c(C(C)Nc2nc(-c3cc(Cl)c(N)c(Cl)c3)cs2)nc2cc(Cl)c(N3CCCCC3)cc21 (stereo unspecified)	inactive: -2.68%	
Cc1cccc(NC(=O)CSc2cccc3cccnc23)c1	inactive: -3.45%	
COc1ccc2c(c1)c(=O)c(C(=O)c1ccccc1)cn2Cc1ccc(C)cc1	inactive: -0.974%	
C/C(CCC12CC3CC(CC(C3)C1)C2)=N\NC(N)=S	inactive: 0.0839%	
CNc1sc(C(=O)c2ccccc2F)c(N)c1-c1nc2ccccc2s1	inactive: -1.71%	
CC(=C/c1ccccc1)/C=N/n1c(C)n[nH]c1=S	inactive: -2.2%	
COCCN(C(=O)CN1CCN(S(=O)(=O)c2ccc(F)cc2)CC1)c1c(N)n(Cc2ccccc2)c(=O)[nH]c1=O	inactive: -2.8%	
Cc1cc(C)nc(-n2nc(C)cc2NC(=O)CNC2CCCCC2)n1	inactive: -0.834%	
NC(=S)N/N=C/c1ccccc1OC(=O)c1cc2ccccc2oc1=O	inactive: -2.45%	
COc1cc(CNC2CCCC2)c(Br)cc1OC1CCCC1	inactive: 8.7%	
COc1ccccc1-[n+]1c(C)cc(/C=C2\Sc3ccccc3N2C)cc1C	inactive: 4.51%	
O=C(CSc1nc2ccccc2o1)Nc1nccs1	inactive: -0.716%	
NC(=S)N/N=C1\CC(c2ccc3c(c2)OCCCO3)Oc2ccc(F)cc21 (stereo unspecified)	inactive: -3.01%	
O=C(O)C12CC3CC(C1)CC(n1ncc(N4CCN(c5ccccc5)CC4)c(Cl)c1=O)(C3)C2	inactive: -3.23%	
Cc1cc(-c2n[nH]c(=S)n2/N=C/C(Br)=C/c2ccccc2)n[nH]1	inactive: -3.68%	
COc1ccccc1NC(=O)c1c(Nc2ccccc2F)sc(C(=O)Nc2cccc(Cl)c2)c1N	inactive: -0.683%	
Oc1c(C(c2ccccn2)N2CCC(Cc3ccccc3)CC2)cc(Cl)c2cccnc12 (stereo unspecified)	inactive: -3.72%	

Compound	activation	Potency
CCOC(=O)C1CCN(C(=O)Nc2c(-c3ccccc3)noc2C)CC1	inactive: -2.17%	
Cc1c(C(=O)OC2CCC(C)CC2)[nH]c2c1C(=O)CCC2 (stereo unspecified)	inactive: -0.463%	
CCCn1c(C2CCCN2c2nc(C)cs2)nc2cc(Cl)c(Cl)cc21 (stereo unspecified)	inactive: -4.28%	
Cc1ccc(N/C(C(Cl)=C(Cl)Cl)=C(/Cl)[N+](=O)[O-])c(C)c1	inactive: -1%	
Cc1ccc2cccc(SCC(=O)NCC#N)c2n1	inactive: -2.5%	
Cc1cccc(-c2ncc(CN3CCC(CO)(CCCc4ccccc4)CC3)cn2)c1	inactive: -0.561%	
CCN(CC)c1ccc(/C=N/NC(=O)c2cnccn2)c(O)c1	inactive: -0.277%	
CCOC(=O)c1cnc(-n2nc(C)cc2C)nc1N(CC)CC	inactive: 0.576%	
O=C(CC1CC2CCC1C2)Nc1nc(-c2ccccn2)cs1 (stereo unspecified)	inactive: -2.48%	
Cc1ccc(C)c(Sc2ccc(NC(=O)CCl)cc2)c1	inactive: 0.091%	
COc1ccc(Cl)cc1C(Nc1cccnc1)c1ccc2cccnc2c1O (stereo unspecified)		active: 16.4 µM
C/C(=N\NC(=S)NCCc1ccccc1)c1cccc(Br)c1	inactive: -2.37%	
COc1ccccc1NS(=O)(=O)c1cc(NC(=O)CNC(=O)c2ccc(C)s2)ccc1Cl	inactive: -2.81%	
C/C(CC1CC(C)(C)OC1=O)=N\NC(N)=S (stereo unspecified)	inactive: 0.402%	
CCc1ccc(CNc2ccc(O)cc2)cc1	inactive: -3.25%	
CC1CCN(C(=O)c2ccc(N3CCOCC3)c([N+](=O)[O-])c2)CC1	inactive: -4.02%	
CCOc1cccc(N)c1	inactive: -1.3%	
COc1ccc(OC)c(NC(=O)COC(=O)CCc2nc3ccccc3c(=O)[nH]2)c1	inactive: -1.8%	
CC(Oc1ccc(Cl)cc1Cl)C(=O)NCCCCc1ccccc1 (stereo unspecified)	inactive: -1.75%	
Cc1cc(C)c(C)c(OC(=O)c2sc(Cl)nc2C)c1	inactive: -2.85%	
CC(=O)Nc1ccc(NC(=O)C/C(C)=N/NC(N)=S)cc1	inactive: -1.88%	
Cc1ccc2nc(N3C(=O)CNC3=S)sc2c1	inactive: -2.5%	
O=C(COc1ccccc1[N+](=O)[O-])N/N=C/C=C/c1ccco1	inactive: -1.08%	
CN(C)c1nc(=Nc2cccc(Cl)c2)ss1	inactive: -4.29%	

Compound	activation	Potency
Cc1ccc(C2=CC(c3cccs3)n3nnnc3N2)cc1 (stereo unspecified)	inactive: -2.68%	
CNC(=S)N/N=C/c1c(C)cccc1Cl	inactive: -3.5%	
CCn1c(O)c(N=NC(=S)NCC2CCCO2)c2ccccc21 (stereo unspecified)	inactive: -3.84%	
Cn1c(SCC(=O)N/N=C/C=C/c2ccco2)nc2ccccc21	inactive: -1.34%	
C(=N\Nc1nc2ccccc2[nH]1)/C1CCCCC1	inactive: -0.794%	
CCn1c(SCC(=O)N/N=C/C=C\c2ccco2)nc2ccccc21	inactive: -1.57%	
COc1ccc(Nc2cnn(-c3nc4ccccc4s3)c(=O)c2Cl)cc1	inactive: -3.85%	
O=C(CSc1cccc[n+]1[O-])c1ccc(Cl)cc1	inactive: -5.74%	
CCOC(=O)c1ccc(N2C(=O)c3n[nH]c(-c4ccco4)c3C2c2ccc([N+](=O)[O-])cc2)cc1 (stereo unspecified)	inactive: -0.353%	
COCC(=O)Nc1c(C(=O)Nc2ccc3c(c2)OCCO3)oc2ccccc12	inactive: -1.76%	
O=C(CC(c1ccco1)S(=O)(=O)c1ccccc1)c1ccccc1 (stereo unspecified)	inactive: -2.35%	
Oc1c(CNc2ccccc2)cc(COCc2ccccc2)c2cccnc12	inactive: -5.03%	
O=C(c1ccccc1F)c1cc2c(cc1[N+](=O)[O-])OCCO2	inactive: -3.34%	
O=C(CNCc1ccccc1Cl)Nc1ccc2c(c1)OCCO2	inactive: -0.278%	
NC(=S)N/N=C/c1ccc(-c2cccc([N+](=O)[O-])c2)o1	inactive: -3.06%	
O=C(O)CCc1ccc(-c2ccc(Cl)cc2)o1	inactive: -3.28%	
CCOC(=O)C1=C(C)N(c2ccc(OC)cc2)C(=O)/C1=C\c1ccc(O)c(OCC)c1	inactive: 6.03%	
COc1cccc(C2C=C(Nc3ccccc3)C(=O)N2c2ccccc2)c1 (stereo unspecified)	inactive: -2.4%	
Cc1ccc(S(=O)(=O)N(Cc2ccc(Cl)cc2)c2ccccc2C(=O)NCc2ccco2)cc1	inactive: 0.706%	
COc1ccc(CN2CCCC(C(=O)c3ccc(Cl)cc3)C2)cc1Cn1cccn1 (stereo unspecified)	inactive: 5.4%	
CCn1c(CNC(=O)c2ccccc2Br)nnc1SCC(=O)Nc1nncs1	inactive: -4.66%	
Cc1ccc(N2C(=O)CS/C2=N\C(=S)Nc2ccccc2)cc1	inactive: -4.54%	
COc1cc(/C=C(\C#N)C(=O)NCC2CCCO2)ccc1OC(C)C (stereo unspecified)	inactive: -1.1%	

Entries of single compounds from above:
`O=C(CC(c1ccco1)S(=O)(=O)c1ccccc1)c1ccccc1` (stereo unspecified) is listed with activation: inactive: -2.35%
`CCn1c(SCC(=O)N/N=C/C=C\c2ccco2)nc2ccccc21` is listed with activation: inactive: -1.57%
`O=C(CNCc1ccccc1Cl)Nc1ccc2c(c1)OCCO2` is listed with activation: inactive: -0.278%
`Cc1ccc(S(=O)(=O)N(Cc2ccc(Cl)cc2)c2ccccc2C(=O)NCc2ccco2)cc1` is listed with activation: inactive: 0.706%
